Results on 2 substances are retold here after publication PMC11730294.

Sequences of proteins named here, by UniProt entry; tags and fusion partners are left off. A change or cut given only in a name is not applied to a line headed by its entry.
UniProt Q01628, whole entry: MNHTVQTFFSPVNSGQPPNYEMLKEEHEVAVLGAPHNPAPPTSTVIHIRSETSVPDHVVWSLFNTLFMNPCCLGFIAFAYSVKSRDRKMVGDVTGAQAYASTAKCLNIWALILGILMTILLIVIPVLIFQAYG

No constants are given. Whether binding was seen depends on the method and setting. Binding seen in cells or lysates may run through a third protein. Some entries that bind do so weakly or less than the wild type.

This experiment addresses T1, endogenous STX8 (HEK293T) (human (endogenous in HEK293T)) (UniProt Q9UNK0).
T1 sequence: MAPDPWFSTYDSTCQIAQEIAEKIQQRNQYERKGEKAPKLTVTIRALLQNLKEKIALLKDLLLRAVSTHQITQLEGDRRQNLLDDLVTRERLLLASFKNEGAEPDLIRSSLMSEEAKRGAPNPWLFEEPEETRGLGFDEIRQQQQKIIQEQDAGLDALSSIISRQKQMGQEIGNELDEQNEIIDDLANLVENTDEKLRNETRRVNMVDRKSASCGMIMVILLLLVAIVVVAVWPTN
Briefly: co-IP; HEK293T stably expressing Empty Vector, IFITM3 WT-FLAG or IFITM3 G95L-FLAG, inoculated with IAV or medium for 18 h; endogenous STX8 immunoprecipitated with anti-STX8; blot anti-STX8, anti-FLAG, anti-VAMP8, anti-VAMP7.

On to “IFITM3-FLAG G95L (from UniProt Q01628 1-133)”, for which the binding result is reported as “binds”.
With “IFITM3-FLAG WT (interferon-induced transmembrane protein 3) (from UniProt Q01628 1-133)”, the binding entry is “binds”.
